Experimental data taken from PMC12435445 (Angewandte Chemie (International Ed. in English), 2025).

Assay: general procedure: solution-phase peptide synthesis; EDC·HCl, HOBt, i-Pr2NEt
Settings: coupling step

Q: Which step yield does the source give for “Boc‐Leu‐Gly‐Trp‐Gly‐Tyr(TIPS)‐Gly‐Phe‐OMe” here?
A: The step yield was 28%.
